# Results from the supplement of paper PMC10849652.
# By UniProt entry, the sequences of proteins in these tests, tags left out. Where a name states a change or a piece, a line headed by the entry shows the natural chain unless it says otherwise.
# UniProt O14817: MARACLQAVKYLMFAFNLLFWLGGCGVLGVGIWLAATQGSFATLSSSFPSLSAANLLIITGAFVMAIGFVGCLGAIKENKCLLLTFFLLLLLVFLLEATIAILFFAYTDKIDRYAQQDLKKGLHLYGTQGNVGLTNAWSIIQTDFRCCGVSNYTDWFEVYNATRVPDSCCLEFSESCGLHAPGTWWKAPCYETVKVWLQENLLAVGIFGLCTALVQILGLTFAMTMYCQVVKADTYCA
# UniProt A2RUC4: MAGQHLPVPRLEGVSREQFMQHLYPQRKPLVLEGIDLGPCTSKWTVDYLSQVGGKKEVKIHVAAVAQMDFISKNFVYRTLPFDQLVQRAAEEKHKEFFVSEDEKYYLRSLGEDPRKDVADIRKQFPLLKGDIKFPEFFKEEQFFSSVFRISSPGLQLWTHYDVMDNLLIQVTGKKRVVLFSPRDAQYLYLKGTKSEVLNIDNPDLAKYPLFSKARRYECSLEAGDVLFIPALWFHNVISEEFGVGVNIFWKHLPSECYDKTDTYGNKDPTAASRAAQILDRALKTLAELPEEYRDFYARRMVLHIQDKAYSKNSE
# UniProt P51668: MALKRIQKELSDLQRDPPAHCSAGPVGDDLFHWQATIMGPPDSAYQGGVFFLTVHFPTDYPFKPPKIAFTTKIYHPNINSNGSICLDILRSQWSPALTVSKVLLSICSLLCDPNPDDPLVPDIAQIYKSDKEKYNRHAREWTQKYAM
# UniProt P29597: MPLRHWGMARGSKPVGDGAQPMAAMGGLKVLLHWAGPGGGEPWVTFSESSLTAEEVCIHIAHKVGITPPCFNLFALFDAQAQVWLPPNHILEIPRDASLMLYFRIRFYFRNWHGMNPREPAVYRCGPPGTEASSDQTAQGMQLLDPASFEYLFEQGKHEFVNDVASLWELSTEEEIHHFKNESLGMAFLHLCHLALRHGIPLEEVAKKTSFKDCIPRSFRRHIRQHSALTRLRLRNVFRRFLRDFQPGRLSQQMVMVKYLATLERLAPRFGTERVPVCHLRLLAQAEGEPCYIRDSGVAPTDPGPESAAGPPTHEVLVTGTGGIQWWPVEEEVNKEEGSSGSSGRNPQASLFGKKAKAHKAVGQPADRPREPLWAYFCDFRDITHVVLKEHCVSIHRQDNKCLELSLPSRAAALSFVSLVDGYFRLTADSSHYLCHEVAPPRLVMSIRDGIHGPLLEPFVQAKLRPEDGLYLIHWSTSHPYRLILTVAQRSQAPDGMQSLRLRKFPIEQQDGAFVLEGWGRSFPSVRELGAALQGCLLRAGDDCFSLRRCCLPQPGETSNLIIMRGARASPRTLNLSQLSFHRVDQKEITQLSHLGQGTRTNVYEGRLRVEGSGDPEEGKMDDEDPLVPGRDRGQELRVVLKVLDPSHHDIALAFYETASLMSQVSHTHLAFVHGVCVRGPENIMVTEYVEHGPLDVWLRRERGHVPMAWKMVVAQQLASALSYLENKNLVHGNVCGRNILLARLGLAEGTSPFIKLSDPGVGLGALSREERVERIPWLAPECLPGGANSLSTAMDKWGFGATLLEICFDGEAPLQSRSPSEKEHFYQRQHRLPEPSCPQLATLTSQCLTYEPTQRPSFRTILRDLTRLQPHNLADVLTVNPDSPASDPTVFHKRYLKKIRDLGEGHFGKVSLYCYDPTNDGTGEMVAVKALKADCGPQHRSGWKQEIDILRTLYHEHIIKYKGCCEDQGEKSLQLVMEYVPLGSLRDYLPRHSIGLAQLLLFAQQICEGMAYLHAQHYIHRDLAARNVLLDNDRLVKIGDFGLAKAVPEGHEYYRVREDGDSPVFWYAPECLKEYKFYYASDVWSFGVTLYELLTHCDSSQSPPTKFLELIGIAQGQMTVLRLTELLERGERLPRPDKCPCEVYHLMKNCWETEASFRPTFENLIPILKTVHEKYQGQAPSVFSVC
# UniProt Q16762: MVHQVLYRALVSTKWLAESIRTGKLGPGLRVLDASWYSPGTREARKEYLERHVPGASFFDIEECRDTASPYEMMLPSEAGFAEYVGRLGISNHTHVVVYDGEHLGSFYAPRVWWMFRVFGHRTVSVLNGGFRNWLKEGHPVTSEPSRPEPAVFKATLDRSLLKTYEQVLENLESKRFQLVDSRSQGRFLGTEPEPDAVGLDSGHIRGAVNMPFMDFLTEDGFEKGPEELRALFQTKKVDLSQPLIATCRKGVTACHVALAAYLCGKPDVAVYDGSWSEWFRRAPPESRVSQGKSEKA
# UniProt Q9H6E5: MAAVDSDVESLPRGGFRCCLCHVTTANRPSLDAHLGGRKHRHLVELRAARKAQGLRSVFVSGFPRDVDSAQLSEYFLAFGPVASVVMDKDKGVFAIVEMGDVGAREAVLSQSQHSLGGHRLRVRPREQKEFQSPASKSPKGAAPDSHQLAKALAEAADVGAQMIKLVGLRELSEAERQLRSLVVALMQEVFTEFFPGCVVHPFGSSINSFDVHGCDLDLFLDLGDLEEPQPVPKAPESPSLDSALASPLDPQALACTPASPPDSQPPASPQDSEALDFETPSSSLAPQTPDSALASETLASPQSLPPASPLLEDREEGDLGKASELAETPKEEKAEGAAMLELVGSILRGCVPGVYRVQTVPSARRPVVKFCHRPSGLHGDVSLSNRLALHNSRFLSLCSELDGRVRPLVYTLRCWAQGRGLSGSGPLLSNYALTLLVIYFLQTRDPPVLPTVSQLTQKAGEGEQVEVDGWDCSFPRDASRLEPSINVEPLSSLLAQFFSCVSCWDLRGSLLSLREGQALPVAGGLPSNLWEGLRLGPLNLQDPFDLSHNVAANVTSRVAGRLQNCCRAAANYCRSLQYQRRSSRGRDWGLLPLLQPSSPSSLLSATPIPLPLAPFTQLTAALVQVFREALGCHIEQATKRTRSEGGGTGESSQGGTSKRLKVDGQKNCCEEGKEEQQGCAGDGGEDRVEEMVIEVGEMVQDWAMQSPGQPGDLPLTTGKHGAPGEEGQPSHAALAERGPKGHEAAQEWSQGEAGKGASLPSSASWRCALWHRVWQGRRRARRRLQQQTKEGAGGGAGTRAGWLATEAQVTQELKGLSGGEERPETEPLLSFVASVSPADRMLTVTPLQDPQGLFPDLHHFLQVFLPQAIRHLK
# UniProt Q96N46: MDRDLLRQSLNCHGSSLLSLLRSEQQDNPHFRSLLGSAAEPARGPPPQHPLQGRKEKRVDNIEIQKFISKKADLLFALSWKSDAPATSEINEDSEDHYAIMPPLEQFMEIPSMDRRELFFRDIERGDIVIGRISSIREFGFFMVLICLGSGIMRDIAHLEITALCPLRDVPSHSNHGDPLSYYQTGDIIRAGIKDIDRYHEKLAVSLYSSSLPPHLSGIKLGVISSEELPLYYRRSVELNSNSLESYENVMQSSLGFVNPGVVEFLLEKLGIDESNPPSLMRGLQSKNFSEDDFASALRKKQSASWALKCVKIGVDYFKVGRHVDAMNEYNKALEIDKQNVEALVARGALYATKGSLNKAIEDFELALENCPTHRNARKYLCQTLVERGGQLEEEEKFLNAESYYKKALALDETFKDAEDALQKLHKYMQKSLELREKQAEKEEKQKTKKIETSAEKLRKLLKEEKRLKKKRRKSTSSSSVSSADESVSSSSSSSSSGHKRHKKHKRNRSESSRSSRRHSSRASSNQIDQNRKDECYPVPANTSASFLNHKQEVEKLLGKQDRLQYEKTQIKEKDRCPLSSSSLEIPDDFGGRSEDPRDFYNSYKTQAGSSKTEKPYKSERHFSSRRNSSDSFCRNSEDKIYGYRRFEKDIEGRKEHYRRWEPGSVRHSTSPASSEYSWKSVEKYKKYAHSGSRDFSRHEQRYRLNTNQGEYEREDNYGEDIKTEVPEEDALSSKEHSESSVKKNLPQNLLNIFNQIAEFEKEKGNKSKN
# UniProt O95857: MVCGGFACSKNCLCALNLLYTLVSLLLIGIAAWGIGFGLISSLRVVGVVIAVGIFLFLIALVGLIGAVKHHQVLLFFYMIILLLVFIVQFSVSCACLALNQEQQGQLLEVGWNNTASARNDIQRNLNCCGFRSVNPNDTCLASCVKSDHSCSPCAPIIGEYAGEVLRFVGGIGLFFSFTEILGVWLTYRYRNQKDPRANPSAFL
# UniProt Q9UJT1: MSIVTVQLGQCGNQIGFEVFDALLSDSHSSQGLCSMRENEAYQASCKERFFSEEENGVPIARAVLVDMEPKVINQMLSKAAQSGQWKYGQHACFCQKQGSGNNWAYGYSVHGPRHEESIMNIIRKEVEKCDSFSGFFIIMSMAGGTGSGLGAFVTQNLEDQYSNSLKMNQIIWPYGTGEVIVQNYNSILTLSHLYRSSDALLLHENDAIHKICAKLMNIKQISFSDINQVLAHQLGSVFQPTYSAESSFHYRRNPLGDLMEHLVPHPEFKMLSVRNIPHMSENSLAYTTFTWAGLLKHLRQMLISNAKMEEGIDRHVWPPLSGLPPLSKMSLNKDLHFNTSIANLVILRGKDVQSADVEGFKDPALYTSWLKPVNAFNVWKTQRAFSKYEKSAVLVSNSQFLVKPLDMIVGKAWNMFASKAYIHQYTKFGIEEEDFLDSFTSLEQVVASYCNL
# UniProt Q9UJ04: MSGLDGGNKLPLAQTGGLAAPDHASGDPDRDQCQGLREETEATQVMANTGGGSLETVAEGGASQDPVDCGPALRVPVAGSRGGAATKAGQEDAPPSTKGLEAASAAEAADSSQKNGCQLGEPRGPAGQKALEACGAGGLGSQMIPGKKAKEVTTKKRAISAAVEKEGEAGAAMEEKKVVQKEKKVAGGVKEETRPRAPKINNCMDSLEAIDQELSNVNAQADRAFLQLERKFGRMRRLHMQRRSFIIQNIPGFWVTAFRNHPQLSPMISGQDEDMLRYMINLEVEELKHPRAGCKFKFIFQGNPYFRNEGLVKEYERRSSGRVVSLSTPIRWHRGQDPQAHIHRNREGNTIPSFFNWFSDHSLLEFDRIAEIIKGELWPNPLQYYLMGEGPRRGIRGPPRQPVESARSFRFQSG
# UniProt Q3ZCM7, whole entry, looked up: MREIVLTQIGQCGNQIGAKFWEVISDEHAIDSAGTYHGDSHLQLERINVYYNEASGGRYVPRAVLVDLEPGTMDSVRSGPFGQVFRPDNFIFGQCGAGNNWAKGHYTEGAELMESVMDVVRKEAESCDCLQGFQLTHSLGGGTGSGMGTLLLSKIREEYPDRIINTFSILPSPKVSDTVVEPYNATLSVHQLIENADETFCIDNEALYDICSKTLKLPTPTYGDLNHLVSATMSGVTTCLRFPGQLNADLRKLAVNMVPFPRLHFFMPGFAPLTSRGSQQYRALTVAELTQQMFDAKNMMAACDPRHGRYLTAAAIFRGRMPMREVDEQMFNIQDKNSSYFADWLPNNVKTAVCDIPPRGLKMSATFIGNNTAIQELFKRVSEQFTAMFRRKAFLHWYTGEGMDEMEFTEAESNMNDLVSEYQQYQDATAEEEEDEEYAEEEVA
# The other results are listed elsewhere or left out. Residues, ends and D or L forms follow the SMILES beside them. *: point of attachment. Cbz = O=C(OCc1ccccc1)*
# How the values were obtained:
# Assay in all cases: log2 fold change, soluble protein after heating vs DMSO (PISA); higher = thermal stabilisation; K562 cells, 10 uM, 30 min; active = over 0.2 and 3.5 SD of the protein, either way, in both replicates (recomputed)
# ibrutinib = compound: C=CC(=O)N1CCC[C@@H](n2nc(-c3ccc(Oc4ccccc4)cc3)c3c(N)ncnc32)C1 [ibrutinib]
# Method in brief: (§1)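 K562 cells (2×10^6 cells/mL) were treated with 10 μM compound for 30 min, and aliquots were heated for 3 min over 48°C-58°C. Pooled aliquots were extracted in PBS with 0.5% NP-40 at 4°C, and the supernatant after 21,000xg for 90 min was measured by TMTpro 16plex LC-MS/MS with channel sums equalised. Reported thermal stability, relative to control samples and from duplicates, is a log2 fold change.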
# ralimetinib = compound: CC(C)(C)Cn1c(N)nc2ccc(-c3[nH]c(C(C)(C)C)nc3-c3ccc(F)cc3)nc21 [ralimetinib]
# Method in brief: as §1
# [1] = compound: CC(C)C1=C2N=C(C=C(N2N=C1)NCC3=CC=CC=C3)NCCCCCCN
# Method in brief: as §1
# [2] = compound: CC(C)C[C@@H](C=O)NC(=O)[C@H](CC(C)C)NC(=O)[C@H](CC(C)C)NC(=O)OCc1ccccc1
# Method in brief: as §1
# [3] = compound: CC1=C(C2=C(C=C1)C(=O)C3=CC=CC=C3N2CCCN)C
# Method in brief: as §1
# [4] = compound: CC1=C(C=C(C=C1)NC(=O)C2=CC(=CC=C2)N(C)C)NC(=O)C3=CC=C(C=C3)O
# Method in brief: as §1
# [5] = compound: CCCc1cc(C)[nH]c(=O)c1CNC(=O)c1cc(-c2ccnc(N3CCN(C)CC3)c2)cc2c1cnn2C(C)C
# Method in brief: as §1
# givinostat = compound: CCN(CC)Cc1ccc2cc(COC(=O)Nc3ccc(C(=O)NO)cc3)ccc2c1 [givinostat]
# Method in brief: as §1
# barasertib = compound: CCN(CCCOc1ccc2c(Nc3cc(CC(=O)Nc4cccc(F)c4)[nH]n3)ncnc2c1)CCOP(=O)(O)O [barasertib]
# Method in brief: as §1
# [6] = compound: CC(=O)c1cnc2ccc(-c3cc(Cl)c(O)c(Cl)c3)nc2c1N[C@H]1CC[C@H](CN(C)C)CC1
# Method in brief: as §1
# [7] = compound: CC(C)(O)CC(=O)NCCn1ccc2ncnc(Nc3ccc(Oc4cccc(C(F)(F)F)c4)c(Cl)c3)c21
# Method in brief: as §1
# [8] = compound: CC1=CC=C(C=C1)SC2=C3C=C(SC3=CN=C2)C(=O)N
# Method in brief: as §1
# Nexturastat A = compound: CCCCN(Cc1ccc(C(=O)NO)cc1)C(=O)Nc1ccccc1 [Nexturastat A]
# Method in brief: as §1
# vemurafenib = compound: CCCS(=O)(=O)Nc1ccc(F)c(C(=O)c2c[nH]c3ncc(-c4ccc(Cl)cc4)cc23)c1F [vemurafenib]
# Method in brief: as §1
# [9] = compound: CCCS(=O)(=O)Nc1ccc(F)c(C(=O)c2c[nH]c3ncc(Cl)cc23)c1F
# Method in brief: as §1
# IRAK-1-4 Inhibitor I = compound: C1COCCN1CCN2C3=CC=CC=C3N=C2NC(=O)C4=CC(=CC=C4)[N+](=O)[O-] [IRAK-1-4 Inhibitor I]
# Method in brief: as §1
# pinometostat = compound: CC(C)N(C[C@H]1O[C@@H](n2cnc3c(N)ncnc32)[C@H](O)[C@@H]1O)[C@H]1C[C@@H](CCc2nc3cc(C(C)(C)C)ccc3[nH]2)C1 [pinometostat]
# Method in brief: as §1
# [10] = compound: CC1=NC(=CC=C1)C2=C(N=C(N2)C(C)(C)C)C3=CC4=NC=CN=C4C=C3
# Method in brief: as §1
# [11] = compound: CC1=C(C=C(C=C1)NC(=O)C2=CC(=CC=C2)C(C)(C)C#N)NC3=CC4=C(C=C3)N=CN(C4=O)C
# Method in brief: as §1
# [12] = compound: CC1=C(C(CC(=O)N1)C2=CC=C(C=C2)C(F)(F)F)C(=O)NC3=C(C=C4C(=C3)C=NN4)F
# Method in brief: as §1
target,measurement,setting,value
TSPAN4 (UniProt O14817),log2 fold change,ibrutinib,inactive: -0.154
same,log2 fold change,ralimetinib,inactive: -0.055
same,log2 fold change,[1],inactive: 0.156
same,log2 fold change,[2],inactive: 0.06
same,log2 fold change,[3],inactive: 0.065
same,log2 fold change,[4],inactive: -0.071
same,log2 fold change,[5],inactive: -0.011
same,log2 fold change,givinostat,inactive: 0.06
same,log2 fold change,barasertib,inactive: 0.231
TYW5 (UniProt A2RUC4),log2 fold change,[6],inactive: -0.284
same,log2 fold change,ralimetinib,inactive: 0.085
same,log2 fold change,[7],inactive: 0.027
same,log2 fold change,[1],inactive: -0.164
same,log2 fold change,[2],inactive: -0.155
same,log2 fold change,[3],inactive: -0.006
same,log2 fold change,[4],inactive: 0.006
same,log2 fold change,[8],inactive: -0.023
same,log2 fold change,Nexturastat A,inactive: 0.087
same,log2 fold change,vemurafenib,inactive: -0.01
same,log2 fold change,[9],inactive: -0.154
same,log2 fold change,[5],inactive: 0.024
same,log2 fold change,givinostat,inactive: 0.077
TUBGCP6 (UniProt Q96RT7),log2 fold change,IRAK-1-4 Inhibitor I,inactive: 0.035
same,log2 fold change,[6],inactive: -0.032
same,log2 fold change,pinometostat,inactive: -0.051
same,log2 fold change,[10],inactive: 0.044
UBE2D1 (UniProt P51668),log2 fold change,ibrutinib,inactive: 0.007
same,log2 fold change,[6],inactive: 0.005
same,log2 fold change,ralimetinib,inactive: 0.003
same,log2 fold change,[1],inactive: -0.203
same,log2 fold change,[2],inactive: -0.058
same,log2 fold change,[3],inactive: 0.117
same,log2 fold change,[11],inactive: -0.08
same,log2 fold change,[4],inactive: 0.029
same,log2 fold change,[8],inactive: 0.021
same,log2 fold change,vemurafenib,inactive: 0.156
same,log2 fold change,[9],inactive: 0.097
same,log2 fold change,[5],inactive: -0.004
same,log2 fold change,givinostat,inactive: -0.035
same,log2 fold change,barasertib,inactive: 0.047
TTC26,log2 fold change,ibrutinib,inactive: 0.035
same,log2 fold change,ralimetinib,inactive: 0.204
same,log2 fold change,[2],inactive: -0.211
same,log2 fold change,[3],inactive: 0.062
same,log2 fold change,[4],inactive: 0.116
same,log2 fold change,vemurafenib,active: -0.598
same,log2 fold change,barasertib,inactive: -0.139
TYK2 (UniProt P29597),log2 fold change,ibrutinib,inactive: -0.21
same,log2 fold change,[11],inactive: -0.11
same,log2 fold change,[8],inactive: -0.096
same,log2 fold change,[9],inactive: 0.141
same,log2 fold change,barasertib,inactive: -0.237
TTR (UniProt P02766),log2 fold change,[6],inactive: 0.068
same,log2 fold change,[1],inactive: 0.116
same,log2 fold change,[5],inactive: 0.178
same,log2 fold change,givinostat,inactive: -0.102
TST (UniProt Q16762),log2 fold change,IRAK-1-4 Inhibitor I,inactive: -0.03
same,log2 fold change,[6],inactive: -0.059
same,log2 fold change,[7],inactive: 0.045
same,log2 fold change,[1],inactive: -0.222
same,log2 fold change,pinometostat,inactive: 0.04
same,log2 fold change,[12],inactive: 0.069
same,log2 fold change,[11],inactive: -0.027
same,log2 fold change,[8],inactive: -0.048
same,log2 fold change,[10],inactive: 0.134
same,log2 fold change,Nexturastat A,inactive: 0.108
same,log2 fold change,vemurafenib,inactive: 0.091
same,log2 fold change,[9],inactive: 0.034
same,log2 fold change,[5],inactive: 0.122
same,log2 fold change,givinostat,inactive: 0
TUT1 (UniProt Q9H6E5),log2 fold change,ibrutinib,inactive: -0.041
same,log2 fold change,barasertib,inactive: 0.091
UBE2M (UniProt M0QX69),log2 fold change,IRAK-1-4 Inhibitor I,inactive: -0.126
same,log2 fold change,pinometostat,inactive: -0.014
same,log2 fold change,[10],inactive: 0.166
TTC14 (UniProt Q96N46),log2 fold change,ibrutinib,inactive: -0.104
same,log2 fold change,[1],inactive: 0.166
same,log2 fold change,[3],inactive: 0.569
same,log2 fold change,[11],inactive: -0.129
same,log2 fold change,givinostat,inactive: 0.311
same,log2 fold change,barasertib,inactive: 0.114
TSPAN13 (UniProt O95857),log2 fold change,ibrutinib,inactive: 0.175
same,log2 fold change,ralimetinib,inactive: -0.149
same,log2 fold change,[7],inactive: 0.151
same,log2 fold change,[1],inactive: -0.198
same,log2 fold change,[2],inactive: 0.018
same,log2 fold change,[3],inactive: 0.065
same,log2 fold change,[11],inactive: 0.111
same,log2 fold change,[4],inactive: -0.078
same,log2 fold change,[8],inactive: 0.161
same,log2 fold change,Nexturastat A,inactive: -0.061
same,log2 fold change,vemurafenib,inactive: 0.103
same,log2 fold change,[9],inactive: -0.08
same,log2 fold change,[5],inactive: -0.113
same,log2 fold change,givinostat,inactive: -0.063
same,log2 fold change,barasertib,inactive: -0.041
TUBD1 (UniProt Q9UJT1),log2 fold change,IRAK-1-4 Inhibitor I,inactive: -0.282
same,log2 fold change,[6],inactive: 0.178
same,log2 fold change,ralimetinib,inactive: 0.297
same,log2 fold change,[2],inactive: 0.319
same,log2 fold change,pinometostat,inactive: 0.204
same,log2 fold change,[11],inactive: 0.201
same,log2 fold change,[4],inactive: 0.023
same,log2 fold change,[8],inactive: 0.072
same,log2 fold change,[10],inactive: 0.052
same,log2 fold change,[9],inactive: -0.094
TSPYL4 (UniProt Q9UJ04),log2 fold change,IRAK-1-4 Inhibitor I,inactive: -0.086
same,log2 fold change,pinometostat,inactive: 0.061
same,log2 fold change,[10],inactive: 0.012
same,log2 fold change,vemurafenib,inactive: -0.107
TUBB8 (UniProt Q3ZCM7),log2 fold change,IRAK-1-4 Inhibitor I,inactive: 0.021
same,log2 fold change,ralimetinib,inactive: 0.013
same,log2 fold change,[1],inactive: -0.002
same,log2 fold change,[2],inactive: 0.14
same,log2 fold change,pinometostat,inactive: -0.016
same,log2 fold change,[12],inactive: -0.035
same,log2 fold change,[11],inactive: -0.145
same,log2 fold change,[4],inactive: 0.067
same,log2 fold change,[10],inactive: -0.038
same,log2 fold change,givinostat,inactive: 0.059

# No new results follow: entries from further up.
target,measurement,setting,value
TTC14 (UniProt Q96N46),log2 fold change,[1],inactive: 0.166
same,log2 fold change,[3],inactive: 0.569
same,log2 fold change,[11],inactive: -0.129
same,log2 fold change,givinostat,inactive: 0.311
same,log2 fold change,barasertib,inactive: 0.114
TSPAN13 (UniProt O95857),log2 fold change,ibrutinib,inactive: 0.175
same,log2 fold change,ralimetinib,inactive: -0.149
same,log2 fold change,[7],inactive: 0.151
same,log2 fold change,[1],inactive: -0.198
same,log2 fold change,[2],inactive: 0.018
same,log2 fold change,[3],inactive: 0.065
same,log2 fold change,[11],inactive: 0.111
same,log2 fold change,[4],inactive: -0.078
same,log2 fold change,[8],inactive: 0.161
same,log2 fold change,Nexturastat A,inactive: -0.061
same,log2 fold change,vemurafenib,inactive: 0.103
same,log2 fold change,[9],inactive: -0.08
same,log2 fold change,[5],inactive: -0.113
same,log2 fold change,givinostat,inactive: -0.063
same,log2 fold change,barasertib,inactive: -0.041
TUBD1 (UniProt Q9UJT1),log2 fold change,IRAK-1-4 Inhibitor I,inactive: -0.282
same,log2 fold change,[6],inactive: 0.178
same,log2 fold change,ralimetinib,inactive: 0.297
same,log2 fold change,[2],inactive: 0.319
same,log2 fold change,pinometostat,inactive: 0.204
same,log2 fold change,[11],inactive: 0.201
same,log2 fold change,[4],inactive: 0.023
same,log2 fold change,[8],inactive: 0.072
same,log2 fold change,[10],inactive: 0.052
same,log2 fold change,[9],inactive: -0.094
TSPYL4 (UniProt Q9UJ04),log2 fold change,IRAK-1-4 Inhibitor I,inactive: -0.086
same,log2 fold change,pinometostat,inactive: 0.061
same,log2 fold change,[10],inactive: 0.012
same,log2 fold change,vemurafenib,inactive: -0.107
TUBB8 (UniProt Q3ZCM7),log2 fold change,IRAK-1-4 Inhibitor I,inactive: 0.021
same,log2 fold change,ralimetinib,inactive: 0.013
same,log2 fold change,[1],inactive: -0.002
same,log2 fold change,[2],inactive: 0.14
